US7576175B2, “Alpha-4 beta-1 integrin ligands for imaging and therapy” (The Regents of the University of California, priority 2004, dated 2009)
For at least one compound, name, drawing or mass did not settle the structure. Numbered stars: 1 amine (or outer) side, 2 acyl side, 3 side chain; on linkers, the order of the positions; unused ones are H or OH. Square brackets hold non-standard residues; d marks the D form. Peptide text beside a SMILES is read from it. * marks the point of attachment. d2Nal = N[C@H](Cc1ccc2ccccc2c1)C(=O)O; X2 = CC(C(=O)[*:2])c1ccc(N[*:1])cc1; X1 = O=C(Cc1ccc(N[*:1])cc1)[*:2]; hPhe = N[C@@H](CCc1ccccc1)C(=O)O; Aad = N[C@@H](CCCC(=O)O)C(=O)O; NH(2-Me-phenyl) = Cc1ccccc1N*; CO = O=C([*:1])[*:2]

Amino acid sequences for entries named in this document (tags omitted). Residues count along the entry.
UniProt P13612, 34-1032: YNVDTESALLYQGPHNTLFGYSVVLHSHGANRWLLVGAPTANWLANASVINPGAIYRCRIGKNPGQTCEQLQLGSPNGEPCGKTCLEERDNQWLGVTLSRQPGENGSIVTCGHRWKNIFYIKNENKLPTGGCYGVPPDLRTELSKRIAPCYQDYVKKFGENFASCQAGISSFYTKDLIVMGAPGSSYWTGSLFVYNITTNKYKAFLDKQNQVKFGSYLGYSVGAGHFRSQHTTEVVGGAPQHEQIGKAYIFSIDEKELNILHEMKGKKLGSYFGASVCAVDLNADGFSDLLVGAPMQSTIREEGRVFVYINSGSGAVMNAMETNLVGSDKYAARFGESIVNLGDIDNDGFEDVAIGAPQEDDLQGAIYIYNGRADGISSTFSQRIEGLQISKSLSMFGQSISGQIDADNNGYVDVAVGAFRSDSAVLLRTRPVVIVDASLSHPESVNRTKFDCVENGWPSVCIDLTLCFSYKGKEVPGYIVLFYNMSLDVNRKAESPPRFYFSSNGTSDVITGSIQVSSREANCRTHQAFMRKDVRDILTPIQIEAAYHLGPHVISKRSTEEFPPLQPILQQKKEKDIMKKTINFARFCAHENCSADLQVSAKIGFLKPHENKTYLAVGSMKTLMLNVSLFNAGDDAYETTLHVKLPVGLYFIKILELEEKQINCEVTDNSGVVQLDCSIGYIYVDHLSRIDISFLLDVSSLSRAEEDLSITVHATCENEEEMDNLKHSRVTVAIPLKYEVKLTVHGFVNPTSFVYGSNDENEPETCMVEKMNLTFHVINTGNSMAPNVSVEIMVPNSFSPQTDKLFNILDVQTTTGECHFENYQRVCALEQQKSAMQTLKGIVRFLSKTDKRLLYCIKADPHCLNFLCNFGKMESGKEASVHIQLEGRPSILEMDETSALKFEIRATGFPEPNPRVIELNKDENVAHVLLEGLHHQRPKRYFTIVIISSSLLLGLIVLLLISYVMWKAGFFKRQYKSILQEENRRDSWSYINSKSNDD

Biological target: T1, α4β1 integrin (Homo sapiens, UniProt P05556+P13612)
T1 construct: screened against live Jurkat cells (α4β1 integrin-positive); endogenous in cells; host or cells: Jurkat T-leukemia cells
Experiment: Cell-based α4β1-mediated adhesion assay: inhibition of Jurkat cell adhesion to immobilized CS-1 peptide (IC50)
Details: Jurkat cell adhesion to CS-1 peptide; re-synthesized ligands of Tables 18 and 19

SMILES | IC50 [nM]
Cc1ccccc1NC(=O)Nc1ccc(C(C)C(=O)N[C@@H](CCc2ccccc2)C(=O)N[C@@H](CCCC(=O)O)C(=O)N[C@H](Cc2ccc3ccccc3c2)C(=O)N[C@H](CCC(=O)O)C(N)=O)cc1 (some centres unmarked) [6B] ({NH(2-Me-phenyl)-CO}-[X2][hPhe][Aad][d2Nal][dE]-NH2) | 22.6
Cc1ccccc1NC(=O)Nc1ccc(CC(=O)N[C@@H](CCc2ccccc2)C(=O)N[C@@H](CCCC(=O)O)C(=O)N[C@H](Cc2ccc3ccccc3c2)C(=O)N[C@H](CCC(=O)O)C(N)=O)cc1 [6A] ({NH(2-Me-phenyl)-CO}-[X1][hPhe][Aad][d2Nal][dE]-NH2) | 9.4
